Sequences of proteins named here, by UniProt entry; tags and fusion partners are left off.
UniProt P50406, whole entry: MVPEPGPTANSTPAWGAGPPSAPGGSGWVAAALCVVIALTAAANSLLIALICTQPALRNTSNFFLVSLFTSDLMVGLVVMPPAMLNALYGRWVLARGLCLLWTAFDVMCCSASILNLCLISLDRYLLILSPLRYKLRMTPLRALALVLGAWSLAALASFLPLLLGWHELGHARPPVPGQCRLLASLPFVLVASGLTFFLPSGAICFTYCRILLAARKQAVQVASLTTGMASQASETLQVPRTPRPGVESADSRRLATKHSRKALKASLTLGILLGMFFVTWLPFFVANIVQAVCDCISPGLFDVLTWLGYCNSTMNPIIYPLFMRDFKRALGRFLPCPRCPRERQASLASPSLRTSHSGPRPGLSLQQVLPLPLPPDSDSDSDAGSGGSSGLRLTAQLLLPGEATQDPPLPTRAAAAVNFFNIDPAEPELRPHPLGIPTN

In publication PMC5259792, “A new serotonin 5-HT6 receptor antagonist with procognitive activity – Importance of a halogen bond interaction to stabilize the binding” (Scientific Reports, 2017):

Legend:
human 5-HT6R WT = target: T1, human 5-HT6R WT (Homo sapiens, UniProt P50406); assay: 5-HT6R AC assay (cAMP), wild type receptor; assay type: cell-based; conditions: HEK-293 cells, 5-HT at 10 x EC50
T1 construct: host or cells: HEK-293

human 5-HT6R = human 5-HT6R (Homo sapiens, UniProt P50406); assay: 5-HT6R radioligand competitive binding assay ([3H]LSD); conditions: read-out: Ki ± SEM (5-HT6R), membranes of transfected HEK-293 cells, mean of two to four experiments in triplicate

- pIC50, inhibition of 5-HT-induced stimulation of cAMP (human 5-HT6R WT): 7.6 ± 0.1
- Ki (human 5-HT6R): 4.5 ± 0.2 nM
SMILES: COc1ccc(NS(=O)(=O)c2ccc(I)cc2)cc1N1CCN(C)CC1 [SB-258585, reference compound]
